The values below come from article PMC11242770.

Sequences of proteins named here, by UniProt entry; tags and fusion partners are left off. Residues count along the entry.
UniProt Q15303, residues 26-1308: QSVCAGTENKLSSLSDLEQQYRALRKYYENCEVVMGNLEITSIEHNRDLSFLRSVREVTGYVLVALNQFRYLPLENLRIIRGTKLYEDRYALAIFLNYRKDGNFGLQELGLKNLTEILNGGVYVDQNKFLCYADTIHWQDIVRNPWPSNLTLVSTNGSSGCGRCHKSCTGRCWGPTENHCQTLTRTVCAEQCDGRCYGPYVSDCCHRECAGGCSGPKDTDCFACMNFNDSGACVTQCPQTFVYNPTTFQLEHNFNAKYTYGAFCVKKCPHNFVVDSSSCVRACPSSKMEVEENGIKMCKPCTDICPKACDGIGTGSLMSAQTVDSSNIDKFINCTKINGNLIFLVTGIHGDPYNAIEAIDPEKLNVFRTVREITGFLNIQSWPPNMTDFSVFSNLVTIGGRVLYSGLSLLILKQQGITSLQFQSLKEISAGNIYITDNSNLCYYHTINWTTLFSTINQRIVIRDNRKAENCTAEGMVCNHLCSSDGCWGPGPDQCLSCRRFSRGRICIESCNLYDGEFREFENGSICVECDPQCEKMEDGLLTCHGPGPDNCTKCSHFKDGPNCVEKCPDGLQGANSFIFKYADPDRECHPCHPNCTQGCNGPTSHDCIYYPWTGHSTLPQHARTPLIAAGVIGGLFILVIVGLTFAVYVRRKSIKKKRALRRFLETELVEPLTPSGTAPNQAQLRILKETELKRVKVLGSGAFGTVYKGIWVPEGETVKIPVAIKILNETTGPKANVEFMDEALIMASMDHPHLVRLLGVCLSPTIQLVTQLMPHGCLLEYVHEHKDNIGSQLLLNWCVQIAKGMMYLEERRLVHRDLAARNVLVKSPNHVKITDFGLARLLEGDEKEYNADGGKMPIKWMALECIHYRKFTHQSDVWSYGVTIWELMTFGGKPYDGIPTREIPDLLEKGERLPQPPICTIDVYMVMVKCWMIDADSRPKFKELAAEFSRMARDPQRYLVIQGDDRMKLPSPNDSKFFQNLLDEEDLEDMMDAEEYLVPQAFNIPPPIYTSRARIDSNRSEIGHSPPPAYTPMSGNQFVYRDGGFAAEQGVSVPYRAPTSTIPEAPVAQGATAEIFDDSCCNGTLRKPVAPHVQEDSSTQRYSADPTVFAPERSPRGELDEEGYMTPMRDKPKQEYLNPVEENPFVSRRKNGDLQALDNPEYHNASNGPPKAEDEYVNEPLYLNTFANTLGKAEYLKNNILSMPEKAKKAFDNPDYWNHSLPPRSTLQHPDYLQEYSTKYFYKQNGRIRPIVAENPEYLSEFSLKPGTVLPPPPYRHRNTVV
UniProt P03372: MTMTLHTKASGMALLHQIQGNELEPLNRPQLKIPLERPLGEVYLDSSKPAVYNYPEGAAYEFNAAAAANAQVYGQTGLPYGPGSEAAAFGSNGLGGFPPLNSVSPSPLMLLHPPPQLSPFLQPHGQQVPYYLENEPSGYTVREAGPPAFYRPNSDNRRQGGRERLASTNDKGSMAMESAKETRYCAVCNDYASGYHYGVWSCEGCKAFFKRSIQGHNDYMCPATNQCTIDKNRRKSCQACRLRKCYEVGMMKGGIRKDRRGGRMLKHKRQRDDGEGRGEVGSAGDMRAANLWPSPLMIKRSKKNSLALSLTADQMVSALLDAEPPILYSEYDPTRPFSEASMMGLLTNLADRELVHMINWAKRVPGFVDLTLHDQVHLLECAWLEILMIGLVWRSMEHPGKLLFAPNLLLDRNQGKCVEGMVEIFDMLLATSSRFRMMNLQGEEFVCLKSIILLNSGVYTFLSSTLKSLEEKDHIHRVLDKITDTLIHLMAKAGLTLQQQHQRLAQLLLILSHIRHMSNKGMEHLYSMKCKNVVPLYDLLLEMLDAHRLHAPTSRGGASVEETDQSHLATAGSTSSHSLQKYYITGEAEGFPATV

The experiment has as its target HER4/4ICD (human epidermal growth factor receptor related HER4 receptor and its cleaved intracellular domain 4ICD) (human (endogenous in MCF-7)) (UniProt Q15303). Briefly: co-IP; 200 µg MCF-7 WT lysate, anti-HER4 catcher antibody on µMACS Protein A MicroBeads, 6 h at 4 °C, washed with ice cold lysis buffer; ESR detected by Western blot; cells untreated or treated 24 h with tamoxifen (1 µM), E2 (100 nM), NRG1 (30 ng/mL) or abemaciclib (100 nM). A general note: In western blotting, separated proteins are transferred to a membrane and probed.

These are yes or no findings as the source states them, for the method shown. In cells and extracts the contact can be indirect. Some binding calls cover weakened binding; strength is not graded here.

For “estrogen receptor (ESR) (from UniProt P03372 1-595)”, the binding entry was “binds”.
